Test: ATPLite cytotoxicity assay in LMH cells
Details: chicken, 18–24 h, presence of 250 μM DFO

Cc1cc(NS(=O)(=O)c2ccc(N)cc2)no1 [sulfamethoxazole]
CC50: 528 µM
